Measurements reported in PubChem BioAssay AID1508597 (Cure First, 2020).
Screen: 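Genes whose silencing sensitises or protects ovarian cancer cells against rucaparib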 (primary screen). Cell system: human ovarian carcinoma lines grown from tumours: OCI-P5x (papillary serous) and OCI-C5x (clear cell). Reagent: siRNA pool against human genes, 1.25 pmol siRNA per well. Timing: 72 h or 96 h, depending on the cell culture. Treatment: rucaparib 20 µM (about IC30) or vehicle, present until read-out. Rucaparib or vehicle: Vehicle. Cell line: OCI-C5x (clear cell). Measurement: 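ATP luminescence measured at 72 or 96 h according to the culture, then normalised and expressed as percent viability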. Direction: viability, normalised: higher = more viable cells remaining. Call rule: 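a well counts as a hit if its normalised viability is under 80 percent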. Meaning of the calls: active = viability under 80%; inactive = viability 80% or more.
This is an unselected part of the about 2,100 reagents, under one of the conditions tested. 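Calls flag viability under 80% in either arm, not effects specific to rucaparib; the reference for percent is not stated.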 A number with no mark means an inactive call. Some reagents were tested in more than one well and are listed for each. The record does not give: the 100% reference.

gene knocked down	PubChem SID	technical replicate	viability, normalised (%)
CXXC4	SID405528158	1	33.5 (active)
CXXC4	SID405528158	2	34.2 (active)
CXXC4	SID405528158	3	29.5 (active)
PCM1	SID405527131	1	25 (active)
PCM1	SID405527131	2	20.8 (active)
PCM1	SID405527131	3	29 (active)
PDE6C	SID405526696	1	33.8 (active)
PDE6C	SID405526696	2	47.6 (active)
PDE6C	SID405526696	3	33.3 (active)
PIK3CB	SID405527634	1	120
PIK3CB	SID405527634	2	52.2 (active)
PIK3CB	SID405527634	3	55.3 (active)
RASSF7	SID405526420	1	76.1 (active)
RASSF7	SID405526420	2	70.4 (active)
RASSF7	SID405526420	3	83.2
PALS1	SID405527787	1	70.1 (active)
PALS1	SID405527787	2	56.2 (active)
PALS1	SID405527787	3	44.9 (active)
YBX1	SID405526371	1	54.7 (active)
YBX1	SID405526371	2	39.7 (active)
YBX1	SID405526371	3	48.7 (active)
TANK	SID405528567	1	80.5
TANK	SID405528567	2	70.7 (active)
TANK	SID405528567	3	78.5 (active)
G2E3	SID405526805	1	43 (active)
G2E3	SID405526805	2	66.2 (active)
G2E3	SID405526805	3	50.4 (active)
KLF6	SID405526946	1	47.2 (active)
KLF6	SID405526946	2	51.2 (active)
KLF6	SID405526946	3	58.3 (active)
EID1	SID405526745	1	64.5 (active)
EID1	SID405526745	2	80.6
EID1	SID405526745	3	70.2 (active)
NEK6	SID405527918	1	78.2 (active)
NEK6	SID405527918	2	72.5 (active)
NEK6	SID405527918	3	42 (active)
SIRT6	SID405527304	1	42.2 (active)
SIRT6	SID405527304	1	62.5 (active)
SIRT6	SID405527304	2	28 (active)
SIRT6	SID405527304	2	66.5 (active)
SIRT6	SID405527304	3	43.7 (active)
SIRT6	SID405527304	3	53 (active)

Records above whose gene name begins with N or n:
gene knocked down	PubChem SID	technical replicate	viability, normalised (%)
NEK6	SID405527918	1	78.2 (active)
NEK6	SID405527918	2	72.5 (active)
NEK6	SID405527918	3	42 (active)
